Results are given in words; binding and its absence hold for the method and conditions named. In cells and extracts the contact can be indirect. Some results given as binding are weak or reduced against the parent protein; the word gives no strength.
target: Regulator of G protein signaling 11 (human) (UniProt O94810); assay: co-IP; CL1-0 R+G stable transfectants fixed with 4% paraformaldehyde for 20 min, lysed in RIPA buffer; 500 ug pre-cleared lysate with home-made murine anti-RGS11 antibody (20 ug) for 2 h, then Protein A/G Sepharose at 4°C overnight; blotted for RGS11, GNB5, RhoA, Rac1, CDC42

Sequences of proteins named here, by UniProt entry; tags and fusion partners are left off.
UniProt O94810: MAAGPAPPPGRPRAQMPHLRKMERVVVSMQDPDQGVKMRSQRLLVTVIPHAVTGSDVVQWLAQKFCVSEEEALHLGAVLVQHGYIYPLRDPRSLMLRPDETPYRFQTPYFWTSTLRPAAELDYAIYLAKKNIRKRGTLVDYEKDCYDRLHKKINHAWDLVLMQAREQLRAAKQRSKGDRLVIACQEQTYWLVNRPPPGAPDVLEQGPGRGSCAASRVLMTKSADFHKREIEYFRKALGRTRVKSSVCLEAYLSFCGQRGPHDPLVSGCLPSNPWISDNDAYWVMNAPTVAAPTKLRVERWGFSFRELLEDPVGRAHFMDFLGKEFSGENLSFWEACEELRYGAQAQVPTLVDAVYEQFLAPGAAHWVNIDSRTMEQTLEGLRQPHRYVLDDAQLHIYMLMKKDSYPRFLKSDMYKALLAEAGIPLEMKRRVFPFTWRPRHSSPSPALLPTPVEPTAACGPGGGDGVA
UniProt P61586: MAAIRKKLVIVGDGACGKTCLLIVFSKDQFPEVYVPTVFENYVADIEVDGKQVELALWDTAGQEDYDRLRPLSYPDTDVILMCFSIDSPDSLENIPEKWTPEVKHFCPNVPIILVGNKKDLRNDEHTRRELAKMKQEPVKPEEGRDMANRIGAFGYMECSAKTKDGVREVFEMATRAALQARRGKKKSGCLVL
UniProt O14775: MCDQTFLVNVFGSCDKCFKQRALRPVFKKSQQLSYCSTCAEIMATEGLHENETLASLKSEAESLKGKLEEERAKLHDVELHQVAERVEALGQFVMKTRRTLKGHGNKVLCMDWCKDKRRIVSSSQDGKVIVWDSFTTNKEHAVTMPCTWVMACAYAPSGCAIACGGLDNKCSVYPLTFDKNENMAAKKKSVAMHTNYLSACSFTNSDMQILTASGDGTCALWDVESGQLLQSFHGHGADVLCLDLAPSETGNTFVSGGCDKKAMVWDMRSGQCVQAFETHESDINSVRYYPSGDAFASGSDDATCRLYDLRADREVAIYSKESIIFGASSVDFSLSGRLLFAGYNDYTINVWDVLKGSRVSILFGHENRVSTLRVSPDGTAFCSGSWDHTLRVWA
UniProt P60953: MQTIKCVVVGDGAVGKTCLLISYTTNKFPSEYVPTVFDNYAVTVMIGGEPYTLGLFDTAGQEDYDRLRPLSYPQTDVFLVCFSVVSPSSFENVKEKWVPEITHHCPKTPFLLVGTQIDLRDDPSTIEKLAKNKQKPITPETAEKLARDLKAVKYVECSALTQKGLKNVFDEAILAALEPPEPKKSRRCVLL

binding	Substance
no binding	RhoA (from UniProt P61586 1-193)
binds	guanine nucleotide-binding protein beta-5 (from UniProt O14775 1-395)
no binding	CDC42 (from UniProt P60953 1-191)

From article PMC5058744
